In the supplement of paper PMC12823440, “Inhibitors supercharge kinase turnover through native proteolytic circuits” (Nature, 2025):
The list shows a part of the results. Hit calls seldom repeat between salt and free forms of one compound.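 Kinases, fused to nanoluciferase, were expressed in K562 cells; luminescence was measured every 4 h from 2 to 18 h as percent of control (DMSO = 100%, positive control = 0%). A time point is decreased if signal falls significantly (2 sigma). Hits were called by the authors by a rule that is not shown; the count of time points alone does not decide it.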

The chains behind the UniProt entries cited, without tags or fusion partners. Where a name states a change or a piece, a line headed by the entry shows the natural chain unless it says otherwise.
UniProt O15530: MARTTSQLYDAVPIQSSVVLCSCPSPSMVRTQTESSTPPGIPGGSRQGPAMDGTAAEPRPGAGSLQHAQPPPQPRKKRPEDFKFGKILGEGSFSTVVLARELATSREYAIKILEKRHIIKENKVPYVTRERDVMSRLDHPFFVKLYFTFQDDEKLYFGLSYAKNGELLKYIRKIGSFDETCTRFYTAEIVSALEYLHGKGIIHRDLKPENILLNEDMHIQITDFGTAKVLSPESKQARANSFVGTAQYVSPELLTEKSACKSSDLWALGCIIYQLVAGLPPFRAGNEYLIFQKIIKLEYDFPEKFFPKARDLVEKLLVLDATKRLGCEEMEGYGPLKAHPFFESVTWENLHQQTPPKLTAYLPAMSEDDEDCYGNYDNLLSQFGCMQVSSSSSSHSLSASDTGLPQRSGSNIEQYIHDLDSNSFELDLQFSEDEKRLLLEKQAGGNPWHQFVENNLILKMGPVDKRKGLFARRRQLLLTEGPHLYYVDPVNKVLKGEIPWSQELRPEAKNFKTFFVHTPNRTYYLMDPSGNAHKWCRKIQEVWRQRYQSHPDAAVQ
UniProt Q9UBF8: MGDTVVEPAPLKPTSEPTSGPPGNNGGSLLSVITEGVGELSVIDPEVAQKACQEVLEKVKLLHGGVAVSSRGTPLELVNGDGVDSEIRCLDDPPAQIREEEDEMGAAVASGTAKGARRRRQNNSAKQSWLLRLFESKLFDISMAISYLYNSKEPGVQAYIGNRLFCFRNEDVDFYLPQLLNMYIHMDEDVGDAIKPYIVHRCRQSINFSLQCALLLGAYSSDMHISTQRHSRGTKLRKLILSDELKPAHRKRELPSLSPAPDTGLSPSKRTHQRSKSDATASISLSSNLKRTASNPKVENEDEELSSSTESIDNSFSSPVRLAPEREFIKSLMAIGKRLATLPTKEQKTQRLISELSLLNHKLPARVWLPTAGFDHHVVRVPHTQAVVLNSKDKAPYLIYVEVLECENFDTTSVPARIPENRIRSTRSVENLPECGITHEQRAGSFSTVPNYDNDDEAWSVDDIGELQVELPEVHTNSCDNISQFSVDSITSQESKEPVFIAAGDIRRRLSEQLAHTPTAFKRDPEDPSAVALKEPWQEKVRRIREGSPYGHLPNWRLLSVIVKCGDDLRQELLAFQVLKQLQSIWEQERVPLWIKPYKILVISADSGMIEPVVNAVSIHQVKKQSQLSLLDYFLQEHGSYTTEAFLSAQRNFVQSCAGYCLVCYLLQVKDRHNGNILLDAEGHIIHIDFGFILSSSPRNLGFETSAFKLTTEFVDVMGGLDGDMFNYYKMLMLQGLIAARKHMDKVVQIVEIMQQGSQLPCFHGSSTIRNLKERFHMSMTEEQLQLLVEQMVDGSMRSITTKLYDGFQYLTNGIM
UniProt Q05397, whole entry, looked up: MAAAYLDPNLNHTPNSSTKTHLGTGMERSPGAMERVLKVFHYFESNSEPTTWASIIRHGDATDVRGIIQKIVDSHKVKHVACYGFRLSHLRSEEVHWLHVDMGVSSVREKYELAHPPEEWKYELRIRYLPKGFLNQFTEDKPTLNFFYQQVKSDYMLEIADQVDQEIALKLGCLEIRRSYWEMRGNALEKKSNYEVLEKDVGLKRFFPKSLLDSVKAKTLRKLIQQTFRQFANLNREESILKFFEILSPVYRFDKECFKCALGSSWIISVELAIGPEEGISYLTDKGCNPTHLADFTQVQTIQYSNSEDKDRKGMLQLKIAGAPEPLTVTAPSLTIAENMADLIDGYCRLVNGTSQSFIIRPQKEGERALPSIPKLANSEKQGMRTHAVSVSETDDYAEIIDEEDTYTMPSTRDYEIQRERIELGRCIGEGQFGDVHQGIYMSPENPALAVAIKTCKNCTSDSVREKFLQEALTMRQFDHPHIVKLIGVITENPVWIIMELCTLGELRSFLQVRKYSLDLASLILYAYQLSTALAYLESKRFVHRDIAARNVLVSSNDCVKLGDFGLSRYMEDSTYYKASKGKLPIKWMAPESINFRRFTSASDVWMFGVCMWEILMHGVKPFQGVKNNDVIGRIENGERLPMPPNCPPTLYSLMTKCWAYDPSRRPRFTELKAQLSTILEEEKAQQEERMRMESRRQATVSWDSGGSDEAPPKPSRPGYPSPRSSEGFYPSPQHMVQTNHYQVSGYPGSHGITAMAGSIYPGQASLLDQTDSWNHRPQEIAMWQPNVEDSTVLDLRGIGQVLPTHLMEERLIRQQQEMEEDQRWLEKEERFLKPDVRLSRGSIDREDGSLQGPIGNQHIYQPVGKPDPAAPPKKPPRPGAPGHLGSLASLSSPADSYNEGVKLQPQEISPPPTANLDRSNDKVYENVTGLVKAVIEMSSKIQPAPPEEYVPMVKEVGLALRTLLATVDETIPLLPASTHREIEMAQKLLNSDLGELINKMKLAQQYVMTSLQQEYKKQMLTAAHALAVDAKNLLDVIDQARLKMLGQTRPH
UniProt Q14289, whole entry, looked up: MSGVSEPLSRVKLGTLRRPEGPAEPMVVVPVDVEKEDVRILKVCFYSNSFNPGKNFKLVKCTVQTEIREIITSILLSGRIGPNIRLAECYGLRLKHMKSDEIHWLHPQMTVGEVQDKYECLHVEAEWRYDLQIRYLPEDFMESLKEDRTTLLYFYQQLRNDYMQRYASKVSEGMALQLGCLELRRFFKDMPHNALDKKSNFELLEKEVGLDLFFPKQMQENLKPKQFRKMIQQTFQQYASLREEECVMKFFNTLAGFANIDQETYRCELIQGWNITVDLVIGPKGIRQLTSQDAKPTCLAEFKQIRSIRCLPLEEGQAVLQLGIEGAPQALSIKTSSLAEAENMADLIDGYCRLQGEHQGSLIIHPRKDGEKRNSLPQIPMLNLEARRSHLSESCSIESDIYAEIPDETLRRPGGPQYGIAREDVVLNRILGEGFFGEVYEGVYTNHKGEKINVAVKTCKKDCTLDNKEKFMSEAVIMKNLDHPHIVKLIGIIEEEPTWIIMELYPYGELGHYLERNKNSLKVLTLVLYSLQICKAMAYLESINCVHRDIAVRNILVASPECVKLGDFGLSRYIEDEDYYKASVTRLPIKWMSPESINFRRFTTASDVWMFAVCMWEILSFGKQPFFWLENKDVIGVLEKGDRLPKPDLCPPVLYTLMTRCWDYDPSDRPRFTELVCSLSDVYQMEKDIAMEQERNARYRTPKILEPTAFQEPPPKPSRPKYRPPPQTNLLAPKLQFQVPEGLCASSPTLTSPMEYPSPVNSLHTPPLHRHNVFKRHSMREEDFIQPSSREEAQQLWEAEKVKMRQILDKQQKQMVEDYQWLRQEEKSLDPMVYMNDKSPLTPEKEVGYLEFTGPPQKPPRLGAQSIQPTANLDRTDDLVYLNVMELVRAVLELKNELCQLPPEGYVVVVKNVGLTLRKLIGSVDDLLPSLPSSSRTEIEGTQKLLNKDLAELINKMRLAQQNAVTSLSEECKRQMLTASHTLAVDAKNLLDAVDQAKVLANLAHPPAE
UniProt P07949, whole entry, looked up: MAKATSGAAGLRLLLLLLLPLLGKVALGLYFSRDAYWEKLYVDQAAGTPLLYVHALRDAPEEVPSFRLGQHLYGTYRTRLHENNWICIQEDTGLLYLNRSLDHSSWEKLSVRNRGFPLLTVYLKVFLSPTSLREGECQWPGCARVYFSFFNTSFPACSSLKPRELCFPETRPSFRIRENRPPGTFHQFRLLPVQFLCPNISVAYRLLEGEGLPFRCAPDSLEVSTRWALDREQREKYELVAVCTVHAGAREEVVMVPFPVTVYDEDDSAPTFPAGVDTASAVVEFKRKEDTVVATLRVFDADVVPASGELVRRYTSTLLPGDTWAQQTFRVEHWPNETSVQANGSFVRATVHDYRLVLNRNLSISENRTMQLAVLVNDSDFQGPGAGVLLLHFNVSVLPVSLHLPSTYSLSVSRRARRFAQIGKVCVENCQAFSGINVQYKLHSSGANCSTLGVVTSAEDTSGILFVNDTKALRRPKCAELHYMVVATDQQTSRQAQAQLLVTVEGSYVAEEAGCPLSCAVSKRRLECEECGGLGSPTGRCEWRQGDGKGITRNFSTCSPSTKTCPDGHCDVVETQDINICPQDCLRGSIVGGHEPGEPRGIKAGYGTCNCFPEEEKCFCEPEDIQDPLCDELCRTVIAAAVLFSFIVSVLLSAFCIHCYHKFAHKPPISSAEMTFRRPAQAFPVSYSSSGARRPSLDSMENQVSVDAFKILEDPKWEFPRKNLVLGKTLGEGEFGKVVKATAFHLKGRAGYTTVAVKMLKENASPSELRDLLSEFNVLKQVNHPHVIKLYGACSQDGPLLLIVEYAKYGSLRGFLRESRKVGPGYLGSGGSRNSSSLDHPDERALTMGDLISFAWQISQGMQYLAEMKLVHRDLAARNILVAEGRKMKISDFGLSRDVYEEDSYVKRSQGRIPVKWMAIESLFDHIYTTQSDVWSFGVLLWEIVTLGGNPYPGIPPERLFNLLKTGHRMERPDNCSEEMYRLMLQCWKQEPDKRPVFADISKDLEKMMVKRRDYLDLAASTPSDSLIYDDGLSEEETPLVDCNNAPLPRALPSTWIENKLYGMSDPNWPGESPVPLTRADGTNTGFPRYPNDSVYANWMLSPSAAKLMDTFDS
UniProt P07949, whole entry M918T, looked up: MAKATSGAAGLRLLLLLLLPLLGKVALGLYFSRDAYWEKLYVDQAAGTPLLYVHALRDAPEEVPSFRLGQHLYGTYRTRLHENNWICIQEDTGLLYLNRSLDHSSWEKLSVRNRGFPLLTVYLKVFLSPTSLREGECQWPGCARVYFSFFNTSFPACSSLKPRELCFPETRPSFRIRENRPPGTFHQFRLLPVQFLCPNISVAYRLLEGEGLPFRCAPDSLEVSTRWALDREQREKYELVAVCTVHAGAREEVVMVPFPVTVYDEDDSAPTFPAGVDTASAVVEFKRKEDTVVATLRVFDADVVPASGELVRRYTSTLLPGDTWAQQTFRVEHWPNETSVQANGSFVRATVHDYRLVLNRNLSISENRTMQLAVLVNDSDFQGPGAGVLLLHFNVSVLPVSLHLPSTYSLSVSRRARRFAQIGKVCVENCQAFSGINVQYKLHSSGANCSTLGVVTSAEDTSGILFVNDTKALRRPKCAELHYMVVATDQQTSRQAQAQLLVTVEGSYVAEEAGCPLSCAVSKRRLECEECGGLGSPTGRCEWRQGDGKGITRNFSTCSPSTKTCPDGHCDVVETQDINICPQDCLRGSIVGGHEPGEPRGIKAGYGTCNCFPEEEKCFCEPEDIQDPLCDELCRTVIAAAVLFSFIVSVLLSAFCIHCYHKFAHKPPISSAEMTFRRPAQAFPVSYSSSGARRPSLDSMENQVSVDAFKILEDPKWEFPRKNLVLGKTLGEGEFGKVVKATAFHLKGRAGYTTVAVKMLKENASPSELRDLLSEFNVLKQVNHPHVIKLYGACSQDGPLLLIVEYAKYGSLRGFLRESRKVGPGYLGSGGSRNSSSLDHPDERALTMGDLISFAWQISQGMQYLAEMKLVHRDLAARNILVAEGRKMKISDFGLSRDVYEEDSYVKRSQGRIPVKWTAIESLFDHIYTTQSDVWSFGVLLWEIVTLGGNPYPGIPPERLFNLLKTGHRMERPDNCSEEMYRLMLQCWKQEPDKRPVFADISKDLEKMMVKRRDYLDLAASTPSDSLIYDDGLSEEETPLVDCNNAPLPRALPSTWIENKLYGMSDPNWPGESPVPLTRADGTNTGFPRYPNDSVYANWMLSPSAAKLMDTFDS
UniProt Q13546: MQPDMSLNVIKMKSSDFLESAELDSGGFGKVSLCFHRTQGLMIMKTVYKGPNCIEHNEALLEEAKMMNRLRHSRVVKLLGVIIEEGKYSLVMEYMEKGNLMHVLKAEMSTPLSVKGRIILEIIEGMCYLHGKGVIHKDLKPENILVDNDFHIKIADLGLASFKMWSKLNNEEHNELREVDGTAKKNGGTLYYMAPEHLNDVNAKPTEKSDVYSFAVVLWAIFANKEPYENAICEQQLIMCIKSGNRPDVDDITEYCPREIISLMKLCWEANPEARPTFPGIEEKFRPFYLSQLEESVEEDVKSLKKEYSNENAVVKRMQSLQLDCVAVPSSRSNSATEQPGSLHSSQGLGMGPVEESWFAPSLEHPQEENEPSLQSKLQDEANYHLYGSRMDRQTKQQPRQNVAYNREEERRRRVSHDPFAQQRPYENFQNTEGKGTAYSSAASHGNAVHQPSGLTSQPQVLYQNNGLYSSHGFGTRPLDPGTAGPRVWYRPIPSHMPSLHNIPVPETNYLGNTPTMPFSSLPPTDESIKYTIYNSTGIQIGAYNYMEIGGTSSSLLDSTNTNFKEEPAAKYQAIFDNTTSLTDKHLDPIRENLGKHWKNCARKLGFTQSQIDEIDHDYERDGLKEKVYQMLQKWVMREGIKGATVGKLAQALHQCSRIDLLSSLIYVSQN

Columns and labels:
Experiment in all cases: number of time points (of 5) at which kinase-Nluc abundance scored as decreased, DMSO-normalised (count); higher = more persistent destabilization
Settings in all cases: K562; 2-18 h
NTRK3 = NTRK3 (UniProt Q16288)
PAK4 = PAK4 (UniProt O96013)
PBK = PBK (UniProt Q96KB5)
PDGFRB = PDGFRB (UniProt P09619)
PDK1 = PDK1 (UniProt Q15118)
PDPK1 = PDPK1 (UniProt O15530)
PIK4CA = PIK4CA (UniProt P42356)
PIK4CB = PIK4CB (UniProt Q9UBF8)
PLK1 = PLK1 (UniProt P53350)
PRKAA1 = PRKAA1 (UniProt Q13131)
PRKCA = PRKCA (UniProt P17252)
PTK2 = PTK2 (UniProt Q05397)
PTK2B = PTK2B (UniProt Q14289)
RAF1 = RAF1 (UniProt P04049)
[1] = biological target: RAF1_S257L (clone: RAF1_mut) (UniProt P04049)
RET = RET (UniProt P07949)
[2] = biological target: RET_M918T (clone: RET_mut) (UniProt P07949)
RIOK1 = RIOK1 (UniProt Q9BRS2)
RIPK1 = RIPK1 (UniProt Q13546)
RIPK2 = RIPK2 (UniProt O43353)

Measured: number of time points

Cc1noc(C)c1-c1ccc(-c2cc(C(N)=O)c(NC(N)=O)s2)c(O[C@H]2CCNC2)c1 (10 µM)
0: all assays above

COc1c(NC(=O)C(=O)c2ccc(OCCN3CCOCC3)c3ccccc23)cc(C(C)(C)C)cc1NS(C)(=O)=O (2.5 µM)
0: all assays above

O=C(Nc1ccc2[nH]nc(-c3ccncc3)c2c1)[C@@H]1CCN(CC(=O)N2CCN(c3ccc(-c4ncccn4)cc3)CC2)C1 (2.5 µM)
0: all assays above

O=C(NC(NC(=S)Nc1ccc(F)c([N+](=O)[O-])c1)C(Cl)(Cl)Cl)C(c1ccccc1)c1ccccc1 (stereo not given) (10 µM)
1: RIPK1
0: all other assays above

Cn1nccc1Nc1nccc(-c2cc3c(s2)C(C)(C)N(CCN2CCOCC2)C3=O)n1 (10 µM)
0: all assays above

COc1cc(N2CCC(N3CCN(C)CC3)CC2)ccc1Nc1ncc(Cl)c(Nc2ccccc2P(C)(C)=O)n1 [Brigatinib] (2 µM)
3: [1]
1: PTK2
0: all other assays above

Cc1ccc(NC(=S)NNc2c([N+](=O)[O-])cc(C(F)(F)F)cc2[N+](=O)[O-])cc1Cl (10 µM)
1: PTK2
0: all other assays above

CN(CCNc1ccc2ncc(-c3ccc(C(N)=O)cc3)n2n1)C(=O)OC(C)(C)C (10 µM)
0: all assays above

C[C@@H]1O[C@@H](O[C@H]2[C@H](Oc3cc(O)c4c(=O)cc(-c5ccc(O)cc5)oc4c3)O[C@H](CO)[C@@H](O)[C@@H]2O)[C@H](O)[C@H](O)[C@H]1O [Rhoifolin] (10 µM)
0: all assays above

CC(C)CC1(O)CCN(C(=O)c2ccc(NS(=O)(=O)c3cccc4nccnc34)cc2)CC1 (10 µM)
0: all assays above

COc1cc(N2CCN(C)CC2)ccc1Nc1ncc2c(n1)N(C1CCC1)C(=O)N(c1c(C)cccc1C)C2 (2.5 µM)
0: all assays above

Cc1c(CN2CCN(C(=O)[C@H](C)O)CC2)sc2c(N3CCOCC3)nc(-c3cnc(N)nc3)nc12 [Apitolisib] (10 µM)
2: PDPK1 | RAF1
4: NTRK3
1: PRKAA1
3: PTK2
0: all other assays above

Cc1ccc(Oc2nc3cc(-c4ccc5c(ccn5C)c4)c(Cl)cc3[nH]2)cc1C(=O)O (10 µM)
0: all assays above

2 records drawn at random from the list so far:
Cc1ccc(Oc2nc3cc(-c4ccc5c(ccn5C)c4)c(Cl)cc3[nH]2)cc1C(=O)O (10 µM)
0: all assays above

Cc1c(CN2CCN(C(=O)[C@H](C)O)CC2)sc2c(N3CCOCC3)nc(-c3cnc(N)nc3)nc12 [Apitolisib] (10 µM)
2: PDPK1 | RAF1
4: NTRK3
1: PRKAA1
3: PTK2
0: all other assays above

(continued)

Cc1cc(Nc2nc(N[C@@H](C)c3ccc(F)cc3)c(C#N)cc2F)n[nH]1 (10 µM)
1: PDPK1
0: all other assays above

COc1ccc(Cl)cc1NC(=O)Nc1cc(C)nc2ccccc12 (2.5 µM)
0: all assays above

COCCO[C@@H]1[C@H](O)[C@@H](CO)O[C@H]1n1cnc2c(=O)[nH]c(N)nc21 [2′-O-(2-Methoxyethyl)guanosine] (10 µM)
0: all assays above

O=C1c2ccc(Nc3ccc(F)cc3F)cc2CCc2ccc(OC[C@H](O)CO)cc21 [Skepinone-L] (2.5 µM)
0: all assays above

C=C(C)C(=O)Nc1cccc(-c2ncnc3[nH]cc(C(=O)OCC)c23)c1 (10 µM)
0: all assays above

O=C(Nc1nc2ccccc2[nH]1)c1cccc(-n2cccc2)c1 (10 µM)
0: all assays above

CNC(=O)c1ccc(-c2cnc3cnc(C(=O)N(C)c4ccc(Cl)cc4)cn23)cc1 (2.5 µM)
0: all assays above

O=[N+]([O-])c1cc(C(F)(F)F)cc([N+](=O)[O-])c1NNC(=S)Nc1ccc(F)cc1 (10 µM)
0: all assays above

N#CC(c1ccnc(NCCc2cccnc2)n1)c1nc2ccccc2s1 (stereo not given) (10 µM)
0: all assays above

c1cn2cc(-c3ccc4cn[nH]c4c3)nc(Nc3ccc(N4CCOCC4)cc3)c2n1 [Entospletinib] (10 µM)
0: all assays above

O=C(/C=C/c1ccc(O)c(O)c1)OC1CC(OC(=O)/C=C/c2ccc(O)c(O)c2)(C(=O)O)CC(O)C1O (stereo not given) [1,3-Dicaffeoylquinic acid] (10 µM)
0: all assays above
